Measurements reported in PubChem BioAssay AID504808 (Drosophila RNAi Screening Center, 2011).
The screen tested about 21,000 reagents; below is a random part of those with a known target gene and a result. In the full data, 18 (0.084%) are marked active. 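Raw counts without plate normalisation, one of two replicates; the ratio scores behind the calls were not deposited.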 A number with no mark means an inactive call. Not given: the amount of reagent, the time to read-out.

Screen: 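Genes whose loss lifts activity of an E2F-responsive reporter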 (primary screen)
Cell system: Drosophila S2 cells
Knock-down reagent: long dsRNA against Drosophila genes
Read-out: 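Firefly luciferase driven by E2F sites, normalised to Renilla luciferase on the same minimal promoter, measured by plate reader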
Direction: E2F firefly: higher = more E2F reporter activity; Renilla normaliser: higher = more normaliser reporter signal
Hit rule: 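Called active if the normalised E2F reporter went up by over 50%; the cutoff is arbitrary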

predicted target,amplicon,"E2F firefly, rep 1","Renilla normaliser, rep 1"
sxe2,DRSC15692,80401,4132
CG12609,DRSC19473,1.35e5,5236
CG14736,DRSC14956,1.49e5,6510
mip120,DRSC06960,91719,4476
CG4968,DRSC02794,76992,3472
COX4,DRSC02091,84132,3579
Or49a,DRSC07493,97254,4344
Yod1,DRSC10433,74347,3233
Rrp1,DRSC00784,1.55e5,5215
tld,DRSC17084,1.17e5,6559
CG8562,DRSC10995,95601,4717
zfh1,DRSC14014,84522,2953
zfh1,DRSC17098,1525,1060
CG10064,DRSC09689,98228,4052
CG31522,DRSC12005,84295,3544
RpL10,DRSC11947,74547,6909
Hand,DRSC02656,1.42e5,4698
CanB,DRSC18449,74103,5883
CG10311,DRSC14228,1.24e5,5795
hzg,DRSC10549,1.24e5,5696
wisp,DRSC19703,7898,616

In a second layout: results already given
predicted target | amplicon | E2F firefly, rep 1 | Renilla normaliser, rep 1
CG12609 | DRSC19473 | 1.35e5 | 5236
CG14736 | DRSC14956 | 1.49e5 | 6510
mip120 | DRSC06960 | 91719 | 4476

Further reagents follow.
predicted target,amplicon,"E2F firefly, rep 1","Renilla normaliser, rep 1"
Lime,DRSC06752,1.09e5,4430
pds5,DRSC06670,2709,183
pdgy,DRSC19064,87295,2935
pdgy,DRSC19341,8223,708
Cyp6g1,DRSC07386,2632,223
Ir48b,DRSC06320,92895,4179
neur,DRSC17013,65265,2871
T48,DRSC16878,1.16e5,5801
CG5177,DRSC02824,80603,3431
CG4049,DRSC04443,1.22e5,4948
Lst,DRSC07146,1.40e5,4866
RpS19b,DRSC15773,76729,6069
caup,DRSC11334,1.03e5,5365
